In the supplement of paper PMC8104966:
The other results are listed elsewhere or left out. This data set is noisy: repeats of one test often differ as much as different tests do.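 U2OS cells carrying ACE2 were mixed with U2OS cells carrying full-length spike, and fusion was scored by imaging as the share of nuclei showing both cell types' fluorescent markers. A compound counts as an inhibitory hit when it is non-toxic and its fusion z-score falls below -3, meaning more than three standard deviations below the plate's DMSO wells.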

system: U2OS ACE2 x SARS-CoV-2 spike co-culture; experiment: cell-cell fusion (fraction fused) z-score vs plate DMSO control; higher = more fusion; settings: 30 µM; 5 h; toxicity class: non-toxic, passed QC

SMILES	cell-cell fusion (z-score)
Cc1c(O)c(O)cc2c1CC=C1[C@@]2(C)CC[C@@]2(C)C3C[C@](C)(C(=O)O)CC[C@]3(C)CC[C@]12C (stereo not given in full)	inactive: 2.11
C=CC1=C(C)/C(=C/c2[nH]c(Cc3[nH]c(/C=C4\NC(=O)C(C)=C4C=C)c(C)c3CCC(=O)O)c(CCC(=O)O)c2C)NC1=O	inactive: 2.53
CC(C)(CCP(=O)(O)O)C(=O)O.Cl [(S)-MAP4 hydrochloride]	inactive: 1.57
C[C@H](N)C(=O)O [alanine]	inactive: 1.85
CC(=O)Nc1ccc(S(=O)(=O)c2ccc(NC(C)=O)cc2)cc1	inactive: 1.97
O=C(NC1CCNCC1)c1n[nH]cc1NC(=O)c1c(Cl)cccc1Cl	inactive: 1.15
O=C(O)CCC(=O)O.O=C(O[C@H]1CN2CCC1CC2)N1CCc2ccccc2[C@@H]1c1ccccc1 [Solifenacin succinate]	inactive: 0.59
O=c1ccc2ccc(O)cc2o1	inactive: 3.98
O=C(O)/C=C\C(=O)O.O=C(O)/C=C\C(=O)O.c1cc(CN2CCCCC2)cc(OCCCNc2nc3ccccc3s2)c1	active: -7.37
O=C(O[C@@H]1Cc2c(O)cc(O)cc2O[C@@H]1c1ccc(O)c(O)c1)c1cc(O)c(O)c(O)c1	inactive: 3.59
CC(=O)N1CCN(c2ccc(OCC3CO[C@](Cn4ccnc4)(c4ccc(Cl)cc4Cl)O3)cc2)CC1 (stereo not given in full)	inactive: 0.441
COC1=CC(=O)C[C@@H](C)[C@]12Oc1c(Cl)c(OC)cc(OC)c1C2=O [Griseofulvin]	inactive: 1.66
Cc1ccc(/C(=C\CN2CCCC2)c2cccc(/C=C/C(=O)O)n2)cc1 [Acrivastine]	inactive: 2.03
O=C(CCc1ccc(O)cc1)c1c(O)cc(O)cc1O[C@@H]1O[C@H](CO)[C@@H](O)[C@H](O)[C@H]1O	inactive: 2.28
CCCCCCCCCCC/C=C\C(C)(C)/C=C\CCCC(=O)O [7,7-Dimethyl-(5Z,8Z)-eicosadienoic acid]	inactive: 0.386
O=C(O)CCCc1ccc(N(CCCl)CCCl)cc1 [Chloroambucil]	inactive: 2.02
CCCCCCc1ccc(O)cc1O	inactive: -0.293
CC(C(=O)O)c1cccc(CC2CCCC2=O)c1 (stereo not given)	inactive: 1.37
CC[C@@H](CO)NCCN[C@@H](CC)CO.Cl.Cl	inactive: 1.71
CC[C@@H](CO)NCCN[C@@H](CC)CO.Cl.Cl [Ethambutol dihydrochloride]	inactive: 2.64

Quoted from the results shown (2 entries):
SMILES	cell-cell fusion (z-score)
O=C(NC1CCNCC1)c1n[nH]cc1NC(=O)c1c(Cl)cccc1Cl	inactive: 1.15
O=C(O)CCC(=O)O.O=C(O[C@H]1CN2CCC1CC2)N1CCc2ccccc2[C@@H]1c1ccccc1 [Solifenacin succinate]	inactive: 0.59
